The subject of series [1] is Gq signaling in HEK 293T cells. The series can be described thus: Light-induced Ca2+ signal (Calbryte 630 AM dye) in opsin-expressing HEK 293T cells. It counts as cell-based. As to conditions: for Wavelength λmax (nm) / Stimulation duration: Table 8. The procedure: Whether heterologous expression of the Opn5 orthologs from chicken, turtles, humans and mice (which share 80-90% protein sequence identity) have the capacity to mediate blue light-induced Gq signaling activation within HEK 293T cells is tested (FIG. 1a and table 7). Blue light for stimulation and the red intracellular calcium indicator Calbryte™ 630 AM dye are used to monitor the relative Ca^2+ response (FIG. 1b).
b, Pseudocolor images of the Ca2+ signal before and after blue light stimulation (10 s; 100 μW/mm^2; 488 nm) in HEK 293T cells expressing Opn5 from three species (Gallus gallus, Homo sapiens, and Mus musculus). Scale bar, 10 μm.
Characterizing the light-activating properties of cOpn5 heterologously expressed in HEK 293T cells is performed. […] The effects of different light durations on cOpn5-expressing HEK 293T cells are tested. […] Therefore, the light sensitivity of cOpn5 is 3-4 orders of magnitude higher than the reported values of the light-sensitive Gq-coupled GPCRs and even 2-3 orders higher than those of the commonly used optogenetic tool Channelrhodopsin-2 (ChR2)(Lin, 2011; Zhang et al., 2006) (table 8).
The performance of cOpn5 to that of opto-a1AR, a chimera GPCR engineered by mixing rhodopsin with Gq-coupled adrenergic receptor is compared. […] The performance of cOpn5 to that of opn4, a natural opsin which was reported as a tool for Gq signaling activating is also compared. […] Therefore, compared with existing opsin-based tools (opto-a1AR and opn4), cOpn5 is much more light-sensitive (˜3 orders more sensitive), requires much shorter time exposure (10 ms vs. 60 s), and produces stronger responses. […]
Experiments description: the following table 9 is a partial list of cOpn5 orthologs from vertebrata tested in the present invention. Whole genes of all reported opsin5 orthologs from vertebrata (the vertebrates subphylum, including rotundia, cartilaginous fishes, bony fishes, Amphibia, reptila, ornitha and mammals) are synthetized, and expressed in HEK 293T cells. Calcium imaging with or without 470 nm blue light stimulation is performed to test the sensitivity of the opsin 5 orthologs in response to light. The time course of light-induced calcium signal reveal the activated degree of Gq signaling pathway and the sensitivity of these orthologs.

For the next series, the system named is HEK293-TRPC3 cells. The conditions noted are these: cited from earlier work.
The subject of a further series is in vivo astrocytes. As to conditions: cited from earlier work.

Some results are limits rather than exact numbers.

B1: cOpn5: Chicken (Gallus gallus) Opn5 (neuropsin) ortholog, SEQ ID NO:1, GenBank NM_001130743.1 (protein, listed as Gallus lafayetii)
chain: MSGMASDCNSSSQEEYLPHYVQQEDPFASKLSREADIIAGFYLTVIGILSTLGNGYVIFMSSKRKKKLRPAEIMTVNLAVCDLGISVVGKPFSIISFFSHRWIFGWMGCRWYGWAGFFFGCGSLITMTAVSLDRYLKICHLAYGTWLKRHHAFICLALIWAYATFWATVPFAGVGSYAPEPFGTSCTLDWWLAQASVAGQAFVLSILFFCLLFPTAVIVFSYVKIILKVKSSTKEVAHYDTRIQNSHILEMKLTKVAMLICAGFLIAWIPYAVVSVWSAFGQPDSVPIQFSVVPTLLAKSAAMYNPIIYQVIDCKFACCRSGGPKTLQKKSSLKESRMYTLSSHRDSAALSGTQLEV
Regarding B1, in series [1] (HEK 293T), the “Need for exogeneous chemicals(retinal)” value was “endogenous retinal is sufficient and No”; the “Wavelength λmax (nm)” value amounted to 470 nm. Besides, in series [1] (HEK 293T cells, 0.026 μW/mm2), the Stimulation duration is above 2 s. Further, the Stimulation duration in series [1] (HEK 293T cells, 16 μW/mm2) came to 0.01 s.

B2: mouse melanopsin (Opn4): mouse melanopsin, literature optogenetic tool in Table 8 (protein, UniProt Q9QXZ9 1-521, looked up)
Melanopsin: MDSPSGPRVLSSLTQDPSFTTSPALQGIWNGTQNVSVRAQLLSVSPTTSAHQAAAWVPFPTVDVPDHAHYTLGTVILLVGLTGMLGNLTVIYTFCRNRGLRTPANMFIINLAVSDFLMSVTQAPVFFASSLYKKWLFGETGCEFYAFCGAVFGITSMITLTAIAMDRYLVITRPLATIGRGSKRRTALVLLGVWLYALAWSLPPFFGWSAYVPEGLLTSCSWDYMTFTPQVRAYTMLLFCFVFFLPLLIIIFCYIFIFRAIRETGRACEGCGESPLRQRRQWQRLQSEWKMAKVALIVILLFVLSWAPYSTVALVAFAGYSHILTPYMSSVPAVIAKASAIHNPIIYAITHPKYRVAIAQHLPCLGVLLGVSGQRSHPSLSYRSTHRSTLSSQSSDLSWISGRKRQESLGSESEVGWTDTETTAAWGAAQQASGQSFCSQNLEDGELKASSSPQVQRSKTPKVPGPSTCRPMKGQGARPSSLRGDQKGRLAVCTGLSECPHPHTSQFPLAFLEDDVTLRHL
In the case of B2, in the series on HEK293-TRPC3 cells, the “Need for exogeneous chemicals(retinal)” value was 11-cis-, the Stimulation duration is on record as above 60 s and the “Wavelength λmax (nm)” value was 480 nm.

B3: human melanopsin: a natural opsin (melanopsin, Opn4) reported as a tool for Gq signaling activating (protein)
chain: MNPPSGPRVPPSPTQEPSCMATPAPPSWWDSSQSSISSLGRLPSISPTAPGTWAAAWVPLPTVDVPDHAHYTLGTVILLVGLTGMLGNLTVIYTFCRSRSLRTPANMFIINLAVSDFLMSFTQAPVFFTSSLYKQWLFGETGCEFYAFCGALFGISSMITLTAIALDRYLVITRPLATFGVASKRRAAFVLLGVWLYALAWSLPPFFGWSAYVPEGLLTSCSWDYMSFTPAVRAYTMLLCCFVFFLPLLIIIYCYIFIFRAIRETGRALQTFGACKGNGESLWQRQRLQSECKMAKIMLLVILLFVLSWAPYSAVALVAFAGYAHVLTPYMSSVPAVIAKASAIHNPIIYAITHPKYRVAIAQHLPCLGVLLGVSRRHSRPYPSYRSTHRSTLTSHTSNLSWISIRRRQESLGSESEVGWTHMEAAAVWGAAQQANGRSLYGQGLEDLEAKAPPRPQGHEAETPGKTKGLIPSQDPRM
On to B3, for which, in series [1] (HEK 293T), the “Need for exogeneous chemicals(retinal)” value is “ATR”, the Stimulation duration was determined as 25 s and the “Wavelength λmax (nm)” value worked out at 470 nm. The “Wavelength λmax (nm)” value in the series on in vivo astrocytes is 473 nm.

(Values after patent US20250011391A1, “ULTRA LIGHT-SENSITIVE NEUROPSIN-BASED OPTOGENETIC TOOL FOR ACTIVATING G q-COUPLED SIGNALING AND/OR ACTIVATING CELLS” (GENANS BIOTECHNOLOGY CO., LTD, priority 2021, published 2025).)
